Source: PubChem BioAssay AID1487 (National Center for Advancing Translational Sciences (NCATS), 2009)
This is one part of the list. Shown are side measurements of this screen, not its main read-out; they come without a call. The list favours compounds with an active or inconclusive main result. The note in brackets gives the kind of curve behind each potency; many fits are weak.

Assay: qHTS Assay for Modulators of Lamin A Splicing
Details: HeLa LMNA splicing GFP/RFP minigene ratio, 48 h
In short: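 S3 HeLa stable clones carrying a lamin A-EGFP splicing minigene plus DsRed2 were seeded at 600 cells/well in Opti-MEM with 2% FBS, pin-dosed and incubated 48 h at 37°C. Acumen cytometry (488 nm) gave the GFP/RFP total-intensity ratio.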

[1] = measured here: GFP splicing reporter channel
[2] = measured here: RFP viability control channel

Row | SMILES | AC50 [1] | AC50 [2]
1 | CC[n+]1ccc(C)c2cc(S(=O)C(F)(F)F)ccc21 (stereo not drawn) | 11.2 µM [rising, partial curve] | –
2 | CC(C)(C)NC(=O)c1cccc(NC(=O)Cc2ccc(Br)cc2)c1 | – | 25.1 µM [rising, single point]
3 | CCOC(=O)C(C)(C)N(Cc1cccc(C)c1)S(=O)(=O)c1ccc(Cl)c([N+](=O)[O-])c1 | – | 11.2 µM [rising, partial curve, poor fit]
4 | CCc1ccc(NC(=O)C2CCCN(S(=O)(=O)c3c(C)[nH]c(=O)[nH]c3=O)C2)cc1 (stereo not drawn) | 0.178 µM [rising, full curve, poor fit] | –
5 | Cc1cc(C)n(-c2nc(NCCO)c3c4c(sc3n2)CCCC4)n1 | – | 10 µM [rising, partial curve]
6 | CSc1ccc(S(=O)(=O)NCCOc2ccccc2C)cc1 | – | 10 µM [rising, partial curve]
7 | Cc1cc(=O)n2c(C(=O)Nc3ccc(C(=O)OC(C)C)cc3)c(C(=O)Nc3ccccc3)sc2n1 | 17.8 µM [falling, single point] | 35.5 µM [falling, single point]
8 | Cc1nc2nc(C)c(CCC(=O)NCCCN3CCN(c4cccc(Cl)c4)CC3)c(C)n2n1 | 0.708 µM [rising, full curve, poor fit] | 0.501 µM [rising, full curve, poor fit]
9 | CCS(=O)(=O)NC(C)C(c1cccs1)N1CCN(c2ccc(F)cc2)CC1 (stereo not drawn) | – | 8.91 µM [rising, partial curve, poor fit]
10 | COc1ccc(Cl)cc1Nc1ncnc2c1nc1n2CCCC1 | 5.62 µM [falling, partial curve] | 31.6 µM [rising, single point]
11 | COC(=O)c1[nH]c2ccc(F)cc2c1NC(=O)Nc1ccc(OC)cc1 | – | 0.141 µM [falling, full curve, poor fit]
12 | CC(C)c1ccc(NC(=O)CNS(=O)(=O)c2ccc(F)cc2)cc1 | 0.02 µM [falling, full curve, poor fit] | 0.02 µM [falling, full curve, poor fit]
13 | CNC(=O)c1cc2n(n1)CCCN(Cc1ccc(F)cc1)C2=O | 0.0316 µM [rising, full curve, poor fit] | –
14 | O=C(Nc1ccc(SC(F)F)cc1)c1ccc(F)cc1 | 0.316 µM [falling, full curve, poor fit] | –
15 | Cc1ccc(C(=O)c2ccccc2C(=O)OCC(=O)NCCc2ccc(Cl)cc2Cl)cc1 | – | 14.1 µM [rising, single point]
16 | Cc1ccc(-c2nnn(CC(=O)N(Cc3ccco3)C(C(=O)NC(C)(C)C)c3ccc(C)o3)n2)o1 (stereo not drawn) | 35.5 µM [falling, partial curve] | –
17 | NC(=O)Cn1c(=O)n(-c2ccccc2)c(=O)c2oc3ccccc3c21 | – | 1.26 µM [rising, single point]
18 | Cc1ccccc1OCc1nnc(SCC(=O)Nc2ccc3nc(SCC(=O)Nc4ccccc4)sc3c2)n1C | 3.55 µM [rising, full curve, poor fit] | 8.91 µM [rising, partial curve, poor fit]
19 | O=C(CCCSc1nc(-c2ccco2)cc(C(F)(F)F)n1)Nc1ccc2c(c1)OCO2 | – | 22.4 µM [rising, partial curve]

Row | SMILES | AC50 [1] | AC50 [2]
20 | O=C1/C(=C\c2ccc3ccccc3c2)CCCc2ccccc21 | 17.8 µM [falling, partial curve] | 35.5 µM [falling, single point]
21 | O=C(CSc1ncnc2ccccc12)Nc1cccc(S(=O)(=O)N2CCOCC2)c1 | 0.178 µM [falling, full curve, poor fit] | 0.1 µM [falling, partial curve]
22 | COCCNC(=O)COC(=O)CSCc1nc2ccccc2s1 | 5.62 µM [falling, single point] | 5.62 µM [falling, single point]
23 | COCCCNCCCOc1ccc(Cl)cc1C(C)(C)C | – | 31.6 µM [rising, single point]
24 | COc1cc(C(=S)N2CCOCC2)ccc1OS(=O)(=O)c1ccccc1[N+](=O)[O-] | – | 3.16 µM [rising, partial curve, poor fit]
25 | COc1cccc(CNC(=O)Cn2ccc3cc(S(=O)(=O)N4CCCC4)ccc32)c1 | 35.5 µM [rising, partial curve, poor fit] | 20 µM [rising, single point]
26 | O=C(Cc1cccs1)Nc1nnc(SCc2ccc(F)cc2)s1 | – | 2 µM [rising, full curve]
27 | Cc1sc2nc(CSCC(=O)Nc3ccccc3C#N)[nH]c(=O)c2c1C | – | 2.24 µM [rising, partial curve, poor fit]
28 | Cc1ccc2c(Cl)c(C(=O)Nc3ccc4c(c3)OCO4)sc2c1 | 12.6 µM [rising, partial curve, poor fit] | –
29 | CC(=O)N(CCCc1ccc(C(C)(C)C)cc1)CCCN(C)C | – | 22.4 µM [rising, single point]
30 | COc1ccc(Cl)c(N2CCN(CCCNC(=O)Nc3ccc(C)cc3)CC2)c1 | – | 35.5 µM [rising, single point]
31 | O=C(CSc1ncnc2sc3c(c12)CCCC3)c1ccco1 | 14.1 µM [rising, single point] | 35.5 µM [rising, single point]
32 | Cc1ccc(CN(Cc2ccco2)c2cnc(S(C)(=O)=O)nc2C(=O)Nc2ccc(Br)cc2)o1 | 0.0355 µM [rising, full curve, poor fit] | –
33 | CC(=O)Nc1ccc(S(=O)(=O)N2CCc3c(Cl)cccc3C2)cc1 | – | 11.2 µM [rising, single point]
34 | CN(C(=O)CSc1nc2ccc(Br)cc2c(=O)n1Cc1ccco1)C1CCS(=O)(=O)C1 (stereo not drawn) | 28.2 µM [falling, partial curve] | –
35 | Cc1nn(-c2ccccc2)c2sc(C(=O)NC3CCCCC3)cc12 | – | 12.6 µM [rising, single point]
36 | O=C1CC(NCc2ccc(F)cc2)C(=O)N1c1ccccc1 (stereo not drawn) | 14.1 µM [rising, partial curve, poor fit] | 0.00447 µM [falling, full curve, poor fit]
37 | COc1cccc(-c2nnc(NC(=O)c3ccc(S(=O)(=O)N4CCOCC4)cc3)o2)c1 | 10 µM [rising, partial curve] | –
38 | c1nc(N2CCNCC2)c2cc(-c3ccc4c(c3)OCO4)ccc2n1 | – | 35.5 µM [rising, single point]

In another format: entries from further up
CN(C(=O)CSc1nc2ccc(Br)cc2c(=O)n1Cc1ccco1)C1CCS(=O)(=O)C1 (stereo not drawn)
  AC50 [1]: 28.2 µM [falling, partial curve]
Cc1nn(-c2ccccc2)c2sc(C(=O)NC3CCCCC3)cc12
  AC50 [2]: 12.6 µM [rising, single point]

(cont.)

Row | SMILES | AC50 [1] | AC50 [2]
39 | Cc1ccc(-n2sc3ccccc3c2=O)cc1S(=O)(=O)N1CCCCC1 | – | 31.6 µM [rising, single point]
40 | CC(=O)Nc1ccc(S(=O)(=O)NCC2CCC(C(=O)NCCCOC(C)C)CC2)cc1 (stereo not drawn) | 0.0631 µM [rising, full curve, poor fit] | –
41 | Cc1occc1C(=O)Nc1nnc(-c2cccs2)s1 | 0.0316 µM [rising, full curve] | 6.31 µM [rising, partial curve, poor fit]
42 | CCCCc1nc(Cl)c(CO)n1Cc1ccc(-c2ccccc2-c2nn[nH]n2)cc1 | 0.708 µM [rising, partial curve, poor fit] | –
43 | CCCOc1ccc(S(=O)(=O)n2cc(Br)c(=O)[nH]c2=O)cc1 | – | 0.251 µM [falling, partial curve]
44 | COc1ccc(S(=O)(=O)NCCSc2ccc(C)cc2)cc1OC | – | 22.4 µM [rising, single point]
45 | CN(C#N)c1nccc(-c2cccs2)n1 | – | 5.62 µM [falling, single point]
46 | COC(=O)/C=C1/SC(=Nc2ccc(C)cc2C)NC1=O | 14.1 µM [falling, single point] | 28.2 µM [falling, partial curve]
47 | CSc1nc(C)cc(Oc2ccc(OCCOc3ccccc3)nn2)n1 | 11.2 µM [rising, single point] | –
48 | Cc1ccccc1-n1nc(C)c2cc(C(=O)NCc3cccnc3)sc21 | – | 17.8 µM [rising, partial curve, poor fit]
49 | CCCCC(CC)COC(=O)/C=C/c1ccc(OC)cc1 (stereo not drawn) | 35.5 µM [falling, single point] | 2.82 µM [rising, full curve, poor fit]
50 | c1cncc(-c2nc(-n3ccnc3)c3ccccc3n2)c1 | 11.2 µM [falling, partial curve] | 25.1 µM [falling, single point]
51 | COc1cc(OC)cc(C(=O)Nn2cc(C(=O)Nc3ccccc3F)c3ccccc3c2=O)c1 | – | 35.5 µM [rising, single point]
52 | COC(=O)c1sccc1S(=O)(=O)N1CCN(c2cccc(C)c2C)CC1 | 0.0562 µM [falling, full curve] | –
53 | CC(=O)N(c1ccccc1)c1nc(/C=C/C(=O)Nc2c(C)cc(C)cc2C)cs1 | – | 7.08 µM [rising, partial curve, poor fit]
54 | CCOc1ccc2nc(C(=O)N3CCCC(C)C3)sc2c1 (stereo not drawn) | 1.78 µM [rising, partial curve, poor fit] | –
55 | CC1CCCCC1NC(=O)COC(=O)c1ccccn1 (stereo not drawn) | – | 20 µM [falling, single point]
56 | CCN(CC)CCc1nc(-c2ccccc2)no1 | 6.31 µM [falling, single point] | –
57 | c1csc(-c2nc3c4ccccc4c4ccccc4c3[nH]2)c1 | 20 µM [rising, single point] | 15.8 µM [rising, single point]
